# Measurements published in the supplement of paper PMC8728848.
# This is one part of the list.
# B1: RetS (Pseudomonas aeruginosa), Q9HUV7 (protein)
# chain: MVRLRIAIGLLVSFLLLLLGPMSPAVADDAGVSSVPLQTTATTPSANQNWRLLRDESAQLRIADVLQRKEQFRPLAKRSFIFPASPQAVWLQVQLPAQKVPSWLWIFAPRVQYLDYYLVQDGQLVRDQHTGESRPFQERPLPSRSYLFSLPVDGKPMTLYVRMTSNHPLMAWFDQIDEAGLVGLEKPAYAFGMLLGGMLLLLMYNLIRFAYSRSASSLWLAAVHAALAVCAAANLGLVAFWLPGLKFNQSLTADLGALGAAVSLLWFACSFFRGTAESRLNRLLQGEALLILAVGAIIAFTQQLWFSWLIYLLVILSSLSVPLIAAWHWYRGYQPARLIVAGMIVFNAGFMVFLPVLFGTKQLDPGWLVLGVFSFATLAGLVLSVSLTERQRLIQQLNLQQRTSEAAHTAELQTKAEFLAKISHEIRTPMNGVLGMTELLLGTPLSAKQRDYVQTIHSAGNELLTLINEILDISKLESGQIELDEVQFDLNALIEDCLDIFRVKAEQQRIELISFTQPQVPRVIGGDPTRLRQVVLSLLDNAFKQTEEGEILLVVALDDQGETPRLRIAVQDSGHPFDAKEREALLTAELHSGDFLSASKLGSHLGLIIARQLVRLMGGEFGIQSGSSQGTTLSLTLPLDPQQLENPTADLDGPLQGARLLVVDDNETCRKVLVQQCSGWGLNVSAVSSGKEALAQLRTKAHLREYFDVVLLDQDMPGMTGMQLAAKIKEDPNLNHDILLIMLTGISNAPSKIIARNAGIKRILAKPVAGYTLKATLADELAQRGVSGVTNYLQPAKEAQAPSLPSDFRILVAEDNSISTKVIRGMLNKLNLQPDTASNGQEALSAMKATQYDLVLMDCEMPVLDGFSATEQLRAWEAHEQRPHTPVVALTAHILSEHKERARLVGMDGHMAKPVELSQLRELIAYWVGERDRRRQGDALPS
# Assays:
# Experiment in all cases: glycan array binding signal (z-score within array); higher = stronger binding
# Conditions in all cases: glycan notation: IUPAC condensed, linker removed
# GalNAc(b1-6)GalNAc = target: GalNAc(b1-6)GalNAc
# Outline: (§1)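 Glycan array data came from 3228 arrays in the Consortium for Functional Glycomics database, and only arrays with an available protein sequence were kept. Glycan names were put into IUPAC-condensed notation, and columns mapping to the same glycan were averaged. The binding signal is a within-array Z-score, averaged across arrays of one protein sequence run at different concentrations or buffers and across linkers. A negative Z-score can be read as non-binding.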
# Glc(a1-4)Glc = target: Glc(a1-4)Glc
# Outline: as §1
# [1] = target: Glc(a1-4)Glc(a1-4)Glc(a1-4)Glc
# Outline: as §1
# Glc(a1-6)Glc(a1-6)Glc = target: Glc(a1-6)Glc(a1-6)Glc
# Outline: as §1
# [2] = target: Glc(a1-6)Glc(a1-6)Glc(a1-6)Glc
# Outline: as §1
# Glc(b1-4)Glc = target: Glc(b1-4)Glc
# Outline: as §1
# Glc(b1-6)Glc = target: Glc(b1-6)Glc
# Outline: as §1
# GlcA(b1-3)Gal = target: GlcA(b1-3)Gal
# Outline: as §1
# GlcA(b1-3)GlcNAc = target: GlcA(b1-3)GlcNAc
# Outline: as §1
# GlcA(b1-6)Gal = target: GlcA(b1-6)Gal
# Outline: as §1
# [3] = target: GlcNAc(a1-3)Gal(b1-4)GlcNAc
# Outline: as §1
# [4] = target: GlcNAc(a1-4)Gal(b1-3)GlcNAc
# Outline: as §1
# [5] = target: GlcNAc(a1-4)Gal(b1-4)GalNAc
# Outline: as §1
# [6] = target: GlcNAc(a1-4)Gal(b1-4)GlcNAc
# Outline: as §1
# [7] = target: GlcNAc(a1-4)Gal(b1-4)GlcNAc(b1-3)Gal(b1-4)Glc
# Outline: as §1
# [8] = target: GlcNAc(a1-4)Gal(b1-4)GlcNAc(b1-3)Gal(b1-4)GlcNAc
# Outline: as §1
# [9] = target: GlcNAc(a1-4)Gal(b1-4)GlcNAc(b1-3)Gal(b1-4)GlcNAc(b1-3)Gal(b1-4)GlcNAc
# Outline: as §1
# [10] = target: GlcNAc(a1-4)Gal(b1-4)GlcNAc(b1-3)Gal(b1-4)[Fuc(a1-3)]GlcNAc(b1-3)Gal(b1-4)[Fuc(a1-3)]GlcNAc
# Outline: as §1
# [11] = target: GlcNAc(a1-6)Gal(b1-4)GlcNAc
# Outline: as §1
# [12] = target: GlcNAc(b1-2)Gal(b1-3)GalNAc
# Outline: as §1
# [13] = target: GlcNAc(b1-2)Man(a1-3)[GlcNAc(b1-2)Man(a1-6)]Man(b1-4)GlcNAc(b1-4)GlcNAc
# Outline: as §1
# [14] = target: GlcNAc(b1-2)Man(a1-3)[GlcNAc(b1-2)Man(a1-6)]Man(b1-4)GlcNAc(b1-4)[Fuc(a1-6)]GlcNAc
# Outline: as §1
# [15] = target: GlcNAc(b1-2)Man(a1-3)[GlcNAc(b1-4)][GlcNAc(b1-2)Man(a1-6)]Man(b1-4)GlcNAc(b1-4)GlcNAc
# Outline: as §1
# [16] = target: GlcNAc(b1-2)[GlcNAc(b1-4)]Man(a1-3)[GlcNAc(b1-2)Man(a1-6)]Man(b1-4)GlcNAc(b1-4)GlcNAc
# Outline: as §1
# [17] = target: GlcNAc(b1-2)[GlcNAc(b1-4)]Man(a1-3)[GlcNAc(b1-4)][GlcNAc(b1-2)Man(a1-6)]Man(b1-4)GlcNAc(b1-4)GlcNAc
# Outline: as §1
# [18] = target: GlcNAc(b1-2)[GlcNAc(b1-4)]Man(a1-3)[GlcNAc(b1-4)][GlcNAc(b1-2)[GlcNAc(b1-6)]Man(a1-6)]Man(b1-4)GlcNAc(b1-4)GlcNAc
# Outline: as §1
# [19] = target: GlcNAc(b1-2)[GlcNAc(b1-6)]Man(a1-6)[GlcNAc(b1-2)Man(a1-3)]Man(b1-4)GlcNAc(b1-4)GlcNAc
# Outline: as §1
# [20] = target: GlcNAc(b1-2)[GlcNAc(b1-6)]Man(a1-6)[GlcNAc(b1-2)Man(a1-3)][GlcNAc(b1-4)]Man(b1-4)GlcNAc(b1-4)GlcNAc
# Outline: as §1
# GlcNAc(b1-3)Gal = target: GlcNAc(b1-3)Gal
# Outline: as §1
# [21] = target: GlcNAc(b1-3)Gal(b1-3)GalNAc
# Outline: as §1
binder,measurement,setting,value
B1,glycan array binding signal (z-score),GalNAc(b1-6)GalNAc,0.146
same,glycan array binding signal (z-score),Glc(a1-4)Glc,0.174
same,glycan array binding signal (z-score),[1],-0.095
same,glycan array binding signal (z-score),Glc(a1-6)Glc(a1-6)Glc,0.692
same,glycan array binding signal (z-score),[2],-0.394
same,glycan array binding signal (z-score),Glc(b1-4)Glc,1.52
same,glycan array binding signal (z-score),Glc(b1-6)Glc,-0.696
same,glycan array binding signal (z-score),GlcA(b1-3)Gal,-0.719
same,glycan array binding signal (z-score),GlcA(b1-3)GlcNAc,0.305
same,glycan array binding signal (z-score),GlcA(b1-6)Gal,-0.623
same,glycan array binding signal (z-score),[3],0.688
same,glycan array binding signal (z-score),[4],-0.22
same,glycan array binding signal (z-score),[5],0.737
same,glycan array binding signal (z-score),[6],-0.409
same,glycan array binding signal (z-score),[7],0.236
same,glycan array binding signal (z-score),[8],6.62
same,glycan array binding signal (z-score),[9],-1.06
same,glycan array binding signal (z-score),[10],4.27
same,glycan array binding signal (z-score),[11],-1.48
same,glycan array binding signal (z-score),[12],-0.622
same,glycan array binding signal (z-score),[13],0.152
same,glycan array binding signal (z-score),[14],-0.49
same,glycan array binding signal (z-score),[15],2.21
same,glycan array binding signal (z-score),[16],-0.599
same,glycan array binding signal (z-score),[17],-0.278
same,glycan array binding signal (z-score),[18],-0.414
same,glycan array binding signal (z-score),[19],0.394
same,glycan array binding signal (z-score),[20],0.595
same,glycan array binding signal (z-score),GlcNAc(b1-3)Gal,0.006
same,glycan array binding signal (z-score),[21],0.065

# Two entries from above, reformatted.
binder | measurement | setting | value
B1 | glycan array binding signal (z-score) | [1] | -0.095
same | glycan array binding signal (z-score) | Glc(a1-6)Glc(a1-6)Glc | 0.692
